Among all 31,000 sequences or so, about 1,400 (4.5%) were called active.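 The calls were made as follows: active = median seed-adjusted z-score above 1 or below -1; inactive = the rest.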 The list shows a part of the results.

Among the data in PubChem BioAssay AID1347426 (Functional Genomics Laboratory (NCATS/FGL), 2020) are median seed-adjusted z-score values, retold here.

The test in a line: Novel Modifiers of Survival Motor Neuron (SMN) Protein: Gene Identification via Genome-wide siRNA Screen.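 Also: luminescence tracks full-length SMN protein made from the SMN2 reporter.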 The settings on record: HEK293T SMN2-luciferase reporter, siRNA knockdown, 72 h; actives lie on both sides. The method, boiled down: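 Luciferase signal, proportional to full-length SMN made from an SMN2 cDNA reporter in stable HEK293T cells, was read 72 h after siRNA reverse transfection. Values were expressed as MAD scores after non-targeting-control normalization and log10 conversion; seed analysis flagged off-targets.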
For orientation: Reporter assays use an easily measured gene product as a stand-in for the process of interest.
Regarding CGUGGAAUUUGGACACUUUTT against MYOC, the median seed-adjusted z-score was inactive: 0.764. Regarding GGCAUUACCUGACAGCUUATT against RFX4, the median seed-adjusted z-score was inactive: -0.0226. In the case of CAUUCGUUCUUACAAGGAATT against FMNL3 it was inactive: 0.481; in that of CAUUGGUGUUGACAAUCCATT against CCT2, inactive: -0.0508. For GGUCGAGUCUCAUUAAUCATT against ZNF84 the value was inactive: -0.246; for CUGACAUGCCUGUACCUCUTT against CDK5R1, inactive: 0.373. In the case of GGCUCUAGCUAGUAGUCAATT against PIGK it was inactive: -0.456. Take AGAGACAUGUGCACCCAAATT against SPRR4: the median seed-adjusted z-score was inactive: 0.211. On to CAGCGCAGAUGUUAACUCATT against ZFPM1, for which the median seed-adjusted z-score is inactive: -0.925. For CAACAUCGUGGUUUUUGAATT against CLDN8 the value was inactive: 0.542.

Take GACACUAUCUUGAUCAGAATT against ACLY: the median seed-adjusted z-score is inactive: 0.478. As for CCUUUACCCUGGGAAUUGATT against PIGN, the median seed-adjusted z-score is inactive: 0.215. In the case of CAGUCAAGGUUUAUAUUCUTT against KCNJ1 it was inactive: 0.0148. In the case of GGCACCGGAUGGUUACAUUTT against DDX1 it was inactive: 0.507; in that of GCAGCUACAGGUCAUCUCATT against DGAT2, inactive: 0.195; in that of GACCUUACGAGGUUUCUAATT against TSNAX, inactive: 0.514. For GGAAGUAUUACACCGCAAATT against HMGCLL1 the value was inactive: 0.275; for CCAAACUAUUGUUAUCGUUTT against PPP2CA, inactive: 0.731; for GGAUGAUGAGAUGAACAUUTT against PDE1B, inactive: -0.384. With GCAUCUUUCAUGAUAUGGATT against SMPDL3A, the median seed-adjusted z-score was inactive: 0.49. In the case of GGAUCACACGCAUCCAUGATT against ZBTB20 it was inactive: -0.521; in that of AGCUAGUUUCUGUCUCGAATT against LOXL3, inactive: 0.517. In the case of CAGACUCCUGUUUACCUUUTT against CLP1 it was inactive: -0.372; in that of GAUCAACUGUUGUCGGUGATT against LIN7B, inactive: 0.236. For GCACCUACAACUGCGAGUATT against ART1 the value was inactive: 0.0033; for GGUGAAAGGUCAGAUCUAATT against ZNF436, inactive: 0.00767. CAAGUACAAUACUAACUGUTT against ZNF280C: the median seed-adjusted z-score was inactive: 0.336. With AGAUGUUCACGAAACCUGUTT against TRIM55, the median seed-adjusted z-score was inactive: -0.483. In the case of GAACCUACUUGUACAAUGATT against TNFRSF1A it was inactive: 0.00772; in that of GGAUUUUGUUUUGAACGCATT against CDK2AP1, inactive: 0.168. For CCUUCAAAGUUUAGAACAATT against B3GNT5, the median seed-adjusted z-score is inactive: -0.452. For GGAGGAGCAAUGGUACUUATT against ZNF512 the value was inactive: -0.675. For GGACCUUAAAGACGAGAAATT against DDX10 the value was inactive: -0.968. With CCGCUGAGGUGACAACAAATT against XRCC5, the median seed-adjusted z-score is active: -1.11.

Turning to CCUAUGACAUGUUUCCAGATT against MAP4K2, the median seed-adjusted z-score is inactive: -0.439. For GAGCAAGGCAUGGAACUAATT against ATP6V0A4 the value was inactive: -0.141; for GGACUCGCAUUUAUUCACATT against ICK, inactive: 0.638. In the case of AAAUUAGAGUGAACAAGAATT against NFIC it was inactive: 0.72. Regarding GAAUCAAUGGACAUGAACATT against CYP2C9, the median seed-adjusted z-score is inactive: 0.246. In the case of GAUUUUGACUAUCUUCUUATT against CD200R1 it was inactive: 0.0679. In the case of GAAGCAUAUCUAUGACUAUTT against ARPM1 it was inactive: -0.0251.

Take AGAUGUUCUGAGGCUGAUATT against OASL: the median seed-adjusted z-score is active: 1.02. Consider CUAUAACUGUGAGCCGGAATT against MST101, for which the median seed-adjusted z-score was inactive: -0.293. In the case of GGAUAAGCUUUAUGAGCGATT against PURB it was inactive: 0.

For the sequence GCUCGACUGUGCAAUAACATT against SART3, the median seed-adjusted z-score is inactive: 0. In the case of GAUGCUGGUUGGUUCGAUATT against MFSD4 it was active: -1.89; in that of GCCUAAGAAAAUUCGAGUATT against SYNJ1, inactive: 0. In the case of CUAUCGUGGUGGAUAUGAATT against SYNCRIP it was inactive: -0.192.

Consider GGGCAGUGGCUAUAGCAUATT against ACER1, for which the median seed-adjusted z-score was inactive: 0.308.

With GAAUAUCGAAAGGAUGAAATT against CRY1, the median seed-adjusted z-score was inactive: 0.0564. For ACAGAAACGGUCCUCUUUATT against PROKR2 the value was inactive: 0.328. In the case of GCAACGAUUUUAGAGGUUATT against ADAM10 it was inactive: 0.14.

On to GGAUGUGGUAGUACAGAAATT against PSMD2, for which the median seed-adjusted z-score was active: -1.44. Take CCACUGGGCUAAUUCUACATT against ALPPL2: the median seed-adjusted z-score is inactive: 0.331.

As for GACUUGCCCUUACUGCAAATT against RNF175, the median seed-adjusted z-score was inactive: 0.127. For AGGACGAGAUGUCCACGAATT against PKP3 the value was inactive: 0.205. For the sequence CAAGCAUGGUCUUUCUACUTT against TUBB2A, the median seed-adjusted z-score is active: 1.03.

Consider CCAUGAACGGUUACCAGAATT against UBTF, for which the median seed-adjusted z-score was inactive: 0.942.

GCAAAUGGGAGGUUGGAAATT against ZIK1: the median seed-adjusted z-score is inactive: -0.0627.

Turning to GAGACUGACUGCGUACUUATT against PAPOLA, the median seed-adjusted z-score was inactive: 0. For GUGCACUAAUCAUACAAUATT against CD1B the value was inactive: -0.407; for UGAAGAUCAUUAACCUGAATT against SCN2B, inactive: -0.65; for CUAUCUUCGGUUGAACAAATT against DNAJC12, inactive: 0.248.

For AGCACUUCAUGACAGGCUATT against GLT6D1, the median seed-adjusted z-score is inactive: 0.145. For GAUCGUCUGCUGAAUACAATT against NASP the value was inactive: 0.133. For CCAUCAAUGCGGCUCAUGUTT against TUFM the value was active: 1.07.

On to CAAAGGAGGUUUUCCGGAATT against TOP1MT, for which the median seed-adjusted z-score was inactive: 0.159.

Turning to CACCCUAGUUCCUCCGGUATT against CD99, the median seed-adjusted z-score is inactive: 0.

Consider CCGAGGACGAAAACUUGUATT against NDUFB11, for which the median seed-adjusted z-score is inactive: 0.014.
